Laboratory results published in PubChem BioAssay AID1307 (SRMLSC, 2008).
Out of some 1,200 compounds screened, fewer than 10 were called active.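 Rule for the calls: active = inhibition reaching a set limit at one or more tested concentrations; inactive = inhibition under that limit at every dose.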 Some of the results follow. Entries with a potency or affinity are not part of this list.

Test: RAM pathway signaling blockade in S. cerevisiae – dose response (AID 1307);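 note: 0% = DMSO vehicle wells and 100% = 10 µM 1-NA-PP1 control; higher inhibition means more yeast growth since RAM block rescues cells from 5-FOA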
Details: S. cerevisiae RAM network URA3 reporter, 5-FOA growth OD615, stronger effect = higher value, yeast express analog-sensitive mutant Cbk1 kinase; at 100 µM unless noted

Max inhibition, inactive:
CC(=O)c1ccc(OC(=O)CCN2c3ccccc3Sc3ccccc32)cc1 2.26% [at 0.196 µM]
Cc1[nH]c2ccccc2c1/C=C/c1nc2ccccc2c(=O)n1-c1ccc([N+](=O)[O-])cc1 6.44%
COc1ccc(C(Cl)=C(c2ccc(OC)cc2)c2ccc(OC)cc2)cc1 5.76% [at 50 µM]
COc1ccccc1Nc1nc2c(C)cccc2cc1C#N 4.2% [at 50 µM]
CS(=O)(=O)Nc1ccc(C(=O)Nc2ccccc2Sc2ccccc2)cc1 6.21%
CCc1cc2c(Sc3nc4ccccc4s3)ncnc2s1 1.8% [at 50 µM]
COc1ccc(OC)c(/C=C/C(=O)OCC(=O)Nc2cccc(Oc3ccccc3)c2)c1 4.47%
COc1ccc(CN2C(=O)c3ccccc3C(/C=N\OCc3ccc(C)cc3)C2=O)cc1 (centres undefined) 3.05% [at 0.782 µM]
CC(CCc1ccccc1)NC(=O)CNC(=S)N(Cc1cccs1)C1CCCC1 (centres undefined) 3.28%
CCC(=O)Nc1ccccc1C(=O)OCc1ccc(C(=O)c2ccccc2)cc1 1.55% [at 0.196 µM]
Nc1ccc(C(=O)c2cccs2)cc1[N+](=O)[O-] 6.93% [at 50 µM]
OC(COCC(F)(F)C(F)(F)C(F)(F)C(F)F)Cn1c2ccc(Cl)cc2c2cc(Cl)ccc21 (centres undefined) 4.25% [at 0.391 µM]
Cc1cc(Br)ccc1SCC(=O)OCC(=O)NC1CCCC1 4.08% [at 0.196 µM]
COC(=O)CSc1nc(N2CCCCC2)c2c(c1C#N)CCCC2 2.41% [at 0.782 µM]
Cc1cc(C)c(C)c(S(=O)(=O)N2CCC(C(=O)OCC(=O)N3c4ccccc4NC(=O)C3(C)C)CC2)c1C 4.49%
Cc1cc(C)c(NC(=O)/C(=C/c2ccccc2)c2ccccc2)c(C)c1 5.18%
Cc1cc(C(=O)COc2ccc(Cl)cc2Br)c(C)n1C 1.08% [at 0.196 µM]
CCN(CC)S(=O)(=O)c1cccc(-c2nnc(SCCOc3ccccc3)o2)c1 3.36% [at 25 µM]
CCOC(=O)Cc1csc(NC(=O)c2c(O)c3ccccc3n(CC(C)C)c2=O)n1 2.71%
CCCCn1c(SCC(=O)Nc2ccccc2C(F)(F)F)nc2ccsc2c1=O 2.91% [at 25 µM]
Cc1oc2ccc(OC(=O)COc3c(F)c(F)c(F)c(F)c3F)cc2c1C(=O)OC(C)C 2.86% [at 6.25 µM]
Brc1ccccc1-c1nnc2sc(Cc3ccccc3)nn12 2.46% [at 0.782 µM]
O=C(c1cnc(-c2ccc(Cl)cc2)s1)c1ccc(Cl)cc1Cl 3.52% [at 50 µM]
CCCCCCCCNC(=O)c1cccnc1SCC(=O)Nc1ccccc1OC 1.89% [at 1.563 µM]
CN(c1cccc(NC(=O)CN(c2ccc(F)cc2)S(C)(=O)=O)c1)S(C)(=O)=O 2.38% [at 0.196 µM]
COc1ccc(O[C@H]2C=C[C@@H](c3ccccc3)O[C@@H]2COC(=O)CC/C(C)=N/O[C@@H](C)c2cc(-c3c(C)cc(C)cc3C)no2)cc1 4.87% [at 25 µM]
CC(C)Oc1ccccc1OCCCCn1cnc2ccccc2c1=O 2.35% [at 6.25 µM]
O=C(OCc1ccccc1)c1cccc(-c2nnc(-c3ccccc3)o2)c1 3.33% [at 3.125 µM]
COc1cccc(/C=C/C(=O)OCC(=O)Nc2ccccc2Sc2ccccc2)c1 4.22%
Cc1ccc(/C=C/C(=O)Nc2ccc(Oc3ccccc3)cc2)o1 8%
COc1ccc(C)cc1S(=O)(=O)N(CC(=O)NCc1ccc(Cl)cc1)Cc1ccccc1 2.92% [at 1.563 µM]
Cc1ccc(Cl)cc1N1CCN(C(=S)NCCc2ccccc2)CC1 3.33% [at 25 µM]
CCN(CC)S(=O)(=O)c1ccc(NCC2COc3ccccc3O2)c([N+](=O)[O-])c1 (centres undefined) 2.77% [at 1.563 µM]
Cc1ccc(/C=C/C2=NN(Cc3ccc(Cl)c(Cl)c3)C(=O)CC2)cc1 3.29%
O=C(O)C(Cc1ccccc1)N1C(=O)/C(=C/c2cccs2)SC1=S (centres undefined) 1.68% [at 50 µM]
Cc1ccc(NC(=O)CSc2nnc(-c3cccs3)n2Cc2ccco2)cc1 4.32% [at 50 µM]
COC(=O)C1=CN(Cc2cccs2)C=C(C(=O)OC)C1c1cccc(Cl)c1 4.01%
CCOC(=O)c1ccc(NC(=S)NC(=O)COc2ccccc2)cc1 9.41%
CCCOc1ccc(/C=N/Nc2ccccc2[N+](=O)[O-])c(OCCC)c1 6.82%
Cc1ccc(CCC(=O)Nc2ncc(Cc3cc(Cl)ccc3Cl)s2)o1 3.23% [at 1.563 µM]
CC(C)[C@H](CN(N=O)[C@@H](Cc1ccccc1)CN(C)N=O)N(CCc1ccccc1)N=O 4.57% [at 50 µM]
O=C(Nc1ccc(Oc2ccc3ccccc3c2)cc1)c1ccco1 4.04%
CCC(=O)NC(=S)Nc1ccc(NC(=S)NC(=O)c2ccccc2)cc1 5.34% [at 50 µM]
CCCCC(=O)Nc1cccc(NC(=S)NC(=O)COc2ccccc2Cl)c1 5.08%
COc1cc(-c2nnc(-c3ccccc3)o2)cc(OC)c1OC 2.19% [at 0.196 µM]
C=CCNC(=O)/C(C#N)=C/c1ccc(OS(=O)(=O)c2ccc(C)cc2)c(OC)c1 2.71%
O=C(NCc1ccccc1)/C(=C/c1ccc(OC(F)F)cc1)c1ccccc1 2.17% [at 50 µM]
CCCc1ccc(/C=C2\C(=O)c3ccccc3C(O)=C2C(=O)OCC)cc1 3.48% [at 50 µM]
CCOC(=O)c1c(C)[nH]c(C(=O)C(C)Sc2ccc(Cl)cc2)c1C (centres undefined) 2.41% [at 12.5 µM]
COC(=O)c1scc(C)c1N/N=C(\C)c1ccc(F)cc1F 8.43%
Cc1ccc(C(=O)/C=C/c2ccc(-c3ccccc3[N+](=O)[O-])o2)cc1 5.66% [at 50 µM]
COc1ccc(C2C=C(c3ccc(Br)cc3)Nc3nc(NS(C)(=O)=O)nn32)cc1 (centres undefined) 4.33%
COc1ccccc1/C=C/C(=O)OCC(=O)Nc1ccccc1Sc1ccccc1 4.13% [setting not given]
Cc1ccc(C(c2nnnn2C2CCCC2)N2CCc3ccccc32)cc1 (centres undefined) 4.04%
COc1ccc(-n2nc(C(=O)Nc3ccc(OC)c(OC)c3)c3c4ccccc4n(C)c3c2=O)cc1 10%
COc1ccc(C(=O)/C=C/Nc2ccc(S(=O)(=O)Nc3ncccn3)cc2)cc1 7.67%
CC(C)(CNC(=S)NCCc1ccccc1)CNC(=S)NCCc1ccccc1 4.96%
Cc1ccc(-c2cc(C(F)F)nc(N3CCC(C)CC3)n2)cc1 3.53%
CCOc1cc(CNc2ccc(CNc3ncn[nH]3)cc2)ccc1OCc1ccccc1 4.47%
CCCCCC(=O)O[C@]1(C(C)=O)CC[C@H]2[C@@H]3CCC4=CC(=O)CC[C@]4(C)[C@H]3CC[C@@]21C 5.66%
O=C(NC(=S)Nc1ccc(Oc2ccccc2)cc1)c1ccc(Cl)cc1 2.56% [at 25 µM]
CCCn1c(=O)c(C(=O)Nc2ccccc2C(=O)OCC)c(O)c2ccccc21 2.64% [at 50 µM]
O=C(/C=C/c1ccccc1)n1cnnc1SC/C=C/c1ccccc1 6.12% [at 50 µM]
Cc1ccc(SCC(=O)Nc2ccc(F)cc2[N+](=O)[O-])cc1C 2.24%
CC(C)COC(=O)/C(C#N)=C/c1cn(Cc2ccccc2)c2ccccc12 7.49%
Cc1cc(Cl)ccc1OCC(=O)N/N=C1\CCCc2ccccc21 1.96% [at 1.563 µM]
CCCCCCN1C=C/C(=C\C=C(C#N)C#N)c2ccccc21 8.82%
CCOc1ccc(CN(Cc2ccco2)C(c2cccs2)c2nnnn2C(C)(C)C)cc1 (centres undefined) 4.47%
N#CCCCSc1nnc(-c2ccc(Cl)cc2)n1-c1ccccc1 2.29% [at 12.5 µM]
Clc1ccc(CSc2nnc(/C=C/c3ccccc3)o2)cc1 2.78% [at 25 µM]
CN(Cc1ccccc1)C(=O)c1[nH]cnc1C(=O)N[C@@H](Cc1ccccc1)C(=O)OCc1ccccc1 3.63%
Cc1ccc(S(=O)(=O)N(CCC(=O)Nc2ccc(OC(F)(F)F)cc2)c2ccccc2)cc1 3.34% [at 1.563 µM]
CCOc1ccc(S(=O)(=O)Nc2nc3ccc(OC)cc3s2)cc1 8.78%
COc1ccc2c(c1)C(=O)/C(=C/C=C/c1ccccc1)CC2 5.66%
O=C(Cc1cccs1)N1CCN(c2nc(-c3ccc(Cl)cc3)cs2)CC1 2.85% [at 3.125 µM]
CN(C)c1ccc(N=Nc2ccccc2C(=O)OCC(=O)Nc2ccccc2C(F)(F)F)cc1 3.49% [at 1.563 µM]
O=C(/C=C/c1ccc(OCc2ccccc2)c(OCc2ccccc2)c1)c1cccnc1 3.78%
COc1cc(NC(=O)c2ccc3c(c2)OCO3)c2ncccc2c1 4.22%
O=C(c1ccccc1)N(Cc1cccnc1)C1(C(=O)Nc2ccccc2)CCCCC1 4.13% [at 1.563 µM]

Filtered by structure, the compounds so far with bromine.
Max inhibition, inactive:
Cc1cc(Br)ccc1SCC(=O)OCC(=O)NC1CCCC1 4.08% [at 0.196 µM]
Cc1cc(C(=O)COc2ccc(Cl)cc2Br)c(C)n1C 1.08% [at 0.196 µM]
Brc1ccccc1-c1nnc2sc(Cc3ccccc3)nn12 2.46% [at 0.782 µM]
COc1ccc(C2C=C(c3ccc(Br)cc3)Nc3nc(NS(C)(=O)=O)nn32)cc1 (centres undefined) 4.33%
